The supplement of paper PMC10077471
In all, about 1,900 compounds were measured (“excess over highest single agent (ExcessHSA) synergy score, 6x6 matrix”: median about -83, lowest 2% from about -370 on). The list shows a part of the results.

system: NCI-H446; experiment: excess over highest single agent (ExcessHSA) synergy score, 6x6 matrix; higher = less synergy (more negative = stronger synergy); details: 72 h; CellTiter-Glo viability

Going from `COc1cc(-c2nn([C@H]3CC[C@H](N4CCN(C(C)=O)CC4)CC3)c3ncnc(N)c23)ccc1NC(=O)c1cc2ccccc2n1C` + Cc1sc2c(c1C)C(c1ccc(Cl)cc1)=N[C@@H](CC(=O)OC(C)(C)C)c1nnc(C)n1-2 [NCGC00250412-19] to `COc1cc2nccc(Oc3ccc(NC(=O)NC4CC4)c(Cl)c3)c2cc1C(N)=O` + Cc1sc2c(c1C)C(c1ccc(Cl)cc1)=N[C@@H](CC(=O)OC(C)(C)C)c1nnc(C)n1-2 [NCGC00250412-19], the “excess over highest single agent” value falls from -41.2 to -115.

First: CC(C)[C@H](CO)Nc1nc(Nc2ccc(C(=O)O)c(Cl)c2)c2ncn(C(C)C)c2n1 + Cc1sc2c(c1C)C(c1ccc(Cl)cc1)=N[C@@H](CC(=O)OC(C)(C)C)c1nnc(C)n1-2 [NCGC00250412-19]
Second: C=CC(=O)Nc1cc2c(Nc3ccc(F)c(Cl)c3)ncnc2cc1C#CC(C)(C)N1CCN(C)CC1 + Cc1sc2c(c1C)C(c1ccc(Cl)cc1)=N[C@@H](CC(=O)OC(C)(C)C)c1nnc(C)n1-2 [NCGC00250412-19]
The “excess over highest single agent” value of the first is higher: 41.5 for the first, -196 for the second.

Compared with `C[C@@H]1[C@@H](C(=O)C[C@H]2O[C@@H]3O[C@]4(C)CC[C@@H]5[C@H](C)CC[C@@H]([C@H]2C)[C@@]35OO4)O[C@@H]2O[C@]3(C)CC[C@H]4[C@H](C)CC[C@@H]1[C@@]24OO3` + Cc1sc2c(c1C)C(c1ccc(Cl)cc1)=N[C@@H](CC(=O)OC(C)(C)C)c1nnc(C)n1-2 [NCGC00250412-19], `CC(=O)OCC(=O)[C@@]12OC(C)(C)O[C@@H]1C[C@H]1[C@@H]3C[C@H](F)C4=CC(=O)C=C[C@]4(C)[C@@]3(F)[C@@H](O)C[C@@]12C` + Cc1sc2c(c1C)C(c1ccc(Cl)cc1)=N[C@@H](CC(=O)OC(C)(C)C)c1nnc(C)n1-2 [NCGC00250412-19] is higher in “excess over highest single agent” value: -355 for the first, -58.6 for the second.

Compared with `CNC(=O)c1ccc2c(C(=Nc3cccc(CN(C)C)c3)c3ccccc3)c(O)[nH]c2c1` + Cc1sc2c(c1C)C(c1ccc(Cl)cc1)=N[C@@H](CC(=O)OC(C)(C)C)c1nnc(C)n1-2 [NCGC00250412-19], `CC/C(=C(\c1ccc(O)cc1)c1ccc(OCCNC)cc1)c1ccccc1` + Cc1sc2c(c1C)C(c1ccc(Cl)cc1)=N[C@@H](CC(=O)OC(C)(C)C)c1nnc(C)n1-2 [NCGC00250412-19] is higher in “excess over highest single agent” value: 93.9 for the first, 218 for the second.

First: Cc1ccccc1C(C(=O)NC1CCCCC1)N(C(=O)CNc1ccc(C#N)cc1)c1cccc(F)c1 (stereo not drawn) + Cc1sc2c(c1C)C(c1ccc(Cl)cc1)=N[C@@H](CC(=O)OC(C)(C)C)c1nnc(C)n1-2 [NCGC00250412-19]
Second: CNC(=O)c1cc(Oc2ccc(NC(=O)Nc3ccc(Cl)c(C(F)(F)F)c3)cc2)ccn1 + Cc1sc2c(c1C)C(c1ccc(Cl)cc1)=N[C@@H](CC(=O)OC(C)(C)C)c1nnc(C)n1-2 [NCGC00250412-19]
The “excess over highest single agent” value of the first is lower: -209 for the first, -34.1 for the second.

Compared with `C=CC1=C(C(=O)O)N2C(=O)[C@@H](NC(=O)/C(=N\O)c3csc(N)n3)[C@H]2SC1` + Cc1sc2c(c1C)C(c1ccc(Cl)cc1)=N[C@@H](CC(=O)OC(C)(C)C)c1nnc(C)n1-2 [NCGC00250412-19], `COc1cccc2c1C(=O)c1c(O)c3c(c(O)c1C2=O)C[C@@](O)(C(C)=O)C[C@@H]3O[C@H]1C[C@H](N)[C@H](O)[C@H](C)O1` + Cc1sc2c(c1C)C(c1ccc(Cl)cc1)=N[C@@H](CC(=O)OC(C)(C)C)c1nnc(C)n1-2 [NCGC00250412-19] is lower in “excess over highest single agent” value: 3.02 for the first, -304 for the second.

Compared with `OCc1ccccc1O[C@@H]1O[C@H](CO)[C@@H](O)[C@H](O)[C@H]1O` + Cc1sc2c(c1C)C(c1ccc(Cl)cc1)=N[C@@H](CC(=O)OC(C)(C)C)c1nnc(C)n1-2 [NCGC00250412-19], `O=C1NC(O)CCN1[C@@H]1O[C@H](CO)[C@@H](O)[C@H]1O` (stereo partly drawn) + Cc1sc2c(c1C)C(c1ccc(Cl)cc1)=N[C@@H](CC(=O)OC(C)(C)C)c1nnc(C)n1-2 [NCGC00250412-19] is lower in “excess over highest single agent” value: -65.5 for the first, -122 for the second.

Compared with `CN1[C@@H]2CC(O)C[C@H]1[C@@H]1O[C@@H]12` (stereo partly drawn) + Cc1sc2c(c1C)C(c1ccc(Cl)cc1)=N[C@@H](CC(=O)OC(C)(C)C)c1nnc(C)n1-2 [NCGC00250412-19], `C=C1CC[C@@H]2[C@](C)(CO)[C@H](O)CC[C@@]2(C)[C@@H]1C/C=C1/C(=O)OC[C@H]1O` + Cc1sc2c(c1C)C(c1ccc(Cl)cc1)=N[C@@H](CC(=O)OC(C)(C)C)c1nnc(C)n1-2 [NCGC00250412-19] is lower in “excess over highest single agent” value: -7.73 for the first, -250 for the second.

Compared with `Cc1cn([C@H]2C=C[C@@H](CO)O2)c(=O)[nH]c1=O` + Cc1sc2c(c1C)C(c1ccc(Cl)cc1)=N[C@@H](CC(=O)OC(C)(C)C)c1nnc(C)n1-2 [NCGC00250412-19], `CC(=O)CC(c1ccccc1)c1c(O)c2ccccc2oc1=O` (stereo not drawn) + Cc1sc2c(c1C)C(c1ccc(Cl)cc1)=N[C@@H](CC(=O)OC(C)(C)C)c1nnc(C)n1-2 [NCGC00250412-19] is higher in “excess over highest single agent” value: -148 for the first, -82.9 for the second.

First: CNC1CCC(N(Cc2cccc(-c3ccncc3)c2)C(=O)c2sc3c(F)ccc(F)c3c2Cl)CC1 (stereo not drawn) + Cc1sc2c(c1C)C(c1ccc(Cl)cc1)=N[C@@H](CC(=O)OC(C)(C)C)c1nnc(C)n1-2 [NCGC00250412-19]
Second: O=S(=O)(CC1CS1)c1ccc(Oc2ccccc2)cc1 (stereo not drawn) + Cc1sc2c(c1C)C(c1ccc(Cl)cc1)=N[C@@H](CC(=O)OC(C)(C)C)c1nnc(C)n1-2 [NCGC00250412-19]
The “excess over highest single agent” value of the first is higher: -46.3 for the first, -165 for the second.

First: O=c1oc2c(O)c(O)cc3c(=O)oc4c(O)c(O)cc1c4c23 + Cc1sc2c(c1C)C(c1ccc(Cl)cc1)=N[C@@H](CC(=O)OC(C)(C)C)c1nnc(C)n1-2 [NCGC00250412-19]
Second: CCC(C)(Oc1ccc(C2(c3ccc(OC(C)(CC)C(=O)O)cc3)CCCCC2)cc1)C(=O)O (stereo not drawn) + Cc1sc2c(c1C)C(c1ccc(Cl)cc1)=N[C@@H](CC(=O)OC(C)(C)C)c1nnc(C)n1-2 [NCGC00250412-19]
The “excess over highest single agent” value of the first is lower: -74.5 for the first, 21.3 for the second.

`c1nc2c(NC3CCCCC3)nc(Nc3ccc(N4CCOCC4)cc3)nc2[nH]1` + Cc1sc2c(c1C)C(c1ccc(Cl)cc1)=N[C@@H](CC(=O)OC(C)(C)C)c1nnc(C)n1-2 [NCGC00250412-19] was tested, and the “excess over highest single agent” value was -52.8.
